Data as given in PubChem BioAssay AID1224829 (NIAID, 2016)
This is one part, drawn at random, of about 3,800 deposited reagents. 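Calls cover raised and lowered translocation; gene median uses one vendor's three siRNAs; qiagen siRNAs acted more weakly than ambion siRNAs.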 Entries without a mark were called inactive. The numbers tell different reagents against one gene apart. Not all columns of the deposit are shown. No sequences are given here.

Aim: 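Genes needed for LPS-driven NF-kappaB p65 nuclear entry in mouse macrophages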 (follow-up of hits)
Cell system: mouse RAW264.7 G9 macrophage reporter cells
Reagent: single siRNA against mouse genes, 100 nM
Timing: 2 days of siRNA knock-down, then 40 min of LPS before fixing
Challenge: LPS (Salmonella minnesota R595) at 10 ng/ml
Measured: 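Imaging of GFP-p65 after 40 min of LPS; nuclear over perinuclear ring intensity ratio, scaled to plate median and non-targeting control wells, given as z-score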
Direction: p65 translocation z-score: higher = more nuclear NF-kappaB p65 after LPS
Active means: 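An siRNA is called active when the mean z-score of its two replicates is above 2 or below -2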
Calls: active = changed p65 translocation (either direction); inactive = no clear change

Scgb1a1 #1, siRNA vendor or control pool ambion single siRNA
- p65 translocation z-score, replicate mean: 3.44 (active)
- p65 translocation z-score, replicate 1: 4.61

Scgb1a1 #2, siRNA vendor or control pool ambion single siRNA
- p65 translocation z-score, replicate mean: -1.78
- p65 translocation z-score, replicate 1: -1.23

Scgb1a1 #3, siRNA vendor or control pool ambion single siRNA
- p65 translocation z-score, replicate mean: -6.86 (active)
- p65 translocation z-score, replicate 1: -7.41

Scgb1a1 #4, siRNA vendor or control pool qiagen single siRNA
- p65 translocation z-score, replicate mean: -2.75 (active)
- p65 translocation z-score, replicate 1: -3.67

Scgb1a1 #5, siRNA vendor or control pool qiagen single siRNA
- p65 translocation z-score, replicate mean: -1.82
- p65 translocation z-score, replicate 1: -2.66

Scgb1a1 #6, siRNA vendor or control pool qiagen single siRNA
- p65 translocation z-score, replicate mean: 3.32 (active)
- p65 translocation z-score, replicate 1: 2.44

Qser1 #1, siRNA vendor or control pool qiagen single siRNA
- p65 translocation z-score, replicate mean: -0.214
- p65 translocation z-score, replicate 1: -0.214

Qser1 #2, siRNA vendor or control pool qiagen single siRNA
- p65 translocation z-score, replicate mean: -1.18
- p65 translocation z-score, replicate 1: -3.19

Qser1 #3, siRNA vendor or control pool qiagen single siRNA
- p65 translocation z-score, replicate mean: -2.11 (active)
- p65 translocation z-score, replicate 1: -0.0732

Prmt5 #1, siRNA vendor or control pool ambion single siRNA
- p65 translocation z-score, replicate mean: -0.0958
- p65 translocation z-score, replicate 1: 2.11

Prmt5 #2, siRNA vendor or control pool ambion single siRNA
- p65 translocation z-score, replicate mean: -2.25 (active)
- p65 translocation z-score, replicate 1: -2.78

Prmt5 #3, siRNA vendor or control pool ambion single siRNA
- p65 translocation z-score, replicate mean: -4.3 (active)
- p65 translocation z-score, replicate 1: -4.26

Prmt5 #4, siRNA vendor or control pool qiagen single siRNA
- p65 translocation z-score, replicate mean: 0.155
- p65 translocation z-score, replicate 1: -0.605

Prmt5 #5, siRNA vendor or control pool qiagen single siRNA
- p65 translocation z-score, replicate mean: 0.423
- p65 translocation z-score, replicate 1: 2.7

Prmt5 #6, siRNA vendor or control pool qiagen single siRNA
- p65 translocation z-score, replicate mean: 0.769
- p65 translocation z-score, replicate 1: 0.0414

Fas #1, siRNA vendor or control pool ambion single siRNA
- p65 translocation z-score, replicate mean: -2.66 (active)
- p65 translocation z-score, replicate 1: -2.16

Fas #2, siRNA vendor or control pool ambion single siRNA
- p65 translocation z-score, replicate mean: -0.446
- p65 translocation z-score, replicate 1: -0.433

Fas #3, siRNA vendor or control pool ambion single siRNA
- p65 translocation z-score, replicate mean: -2.99 (active)
- p65 translocation z-score, replicate 1: -2.69

Fas #4, siRNA vendor or control pool qiagen single siRNA
- p65 translocation z-score, replicate mean: 1.52
- p65 translocation z-score, replicate 1: 0.999

Fas #5, siRNA vendor or control pool qiagen single siRNA
- p65 translocation z-score, replicate mean: 1.16
- p65 translocation z-score, replicate 1: 0.366

Fas #6, siRNA vendor or control pool qiagen single siRNA
- p65 translocation z-score, replicate mean: -2.53 (active)
- p65 translocation z-score, replicate 1: -1.7

C9 #1, siRNA vendor or control pool ambion single siRNA
- p65 translocation z-score, replicate mean: -4.17 (active)
- p65 translocation z-score, replicate 1: -3.02

C9 #2, siRNA vendor or control pool ambion single siRNA
- p65 translocation z-score, replicate mean: -0.955
- p65 translocation z-score, replicate 1: -0.783

C9 #3, siRNA vendor or control pool ambion single siRNA
- p65 translocation z-score, replicate mean: -3.5 (active)
- p65 translocation z-score, replicate 1: -2.72

C9 #4, siRNA vendor or control pool qiagen single siRNA
- p65 translocation z-score, replicate mean: 1.45
- p65 translocation z-score, replicate 1: 2.06

C9 #5, siRNA vendor or control pool qiagen single siRNA
- p65 translocation z-score, replicate mean: 0.73
- p65 translocation z-score, replicate 1: 0.774

C9 #6, siRNA vendor or control pool qiagen single siRNA
- p65 translocation z-score, replicate mean: 0.947
- p65 translocation z-score, replicate 1: 0.947

Ap2m1 #1, siRNA vendor or control pool ambion single siRNA
- p65 translocation z-score, replicate mean: 1.8
- p65 translocation z-score, replicate 1: 1.61

Ap2m1 #2, siRNA vendor or control pool ambion single siRNA
- p65 translocation z-score, replicate mean: -0.748
- p65 translocation z-score, replicate 1: -0.965

Ap2m1 #3, siRNA vendor or control pool ambion single siRNA
- p65 translocation z-score, replicate mean: -2.45 (active)
- p65 translocation z-score, replicate 1: -1.56

Ap2m1 #4, siRNA vendor or control pool qiagen single siRNA
- p65 translocation z-score, replicate mean: 2.71 (active)
- p65 translocation z-score, replicate 1: 2.12

Ap2m1 #5, siRNA vendor or control pool qiagen single siRNA
- p65 translocation z-score, replicate mean: -1.26
- p65 translocation z-score, replicate 1: -1.44

Ap2m1 #6, siRNA vendor or control pool qiagen single siRNA
- p65 translocation z-score, replicate mean: -2.79 (active)
- p65 translocation z-score, replicate 1: -2.8

Looked up above:
Result for Ap2m1 #5, siRNA vendor or control pool qiagen single siRNA under “p65 translocation z-score, replicate 1”: -1.44
Scgb1a1 #2, siRNA vendor or control pool ambion single siRNA, p65 translocation z-score, replicate mean → -1.78
C9 #4, siRNA vendor or control pool qiagen single siRNA, p65 translocation z-score, replicate mean: 1.45
Entry of Fas #1, siRNA vendor or control pool ambion single siRNA under “p65 translocation z-score, replicate 1”: -2.16 (active)
Under “p65 translocation z-score, replicate mean”, Fas #2, siRNA vendor or control pool ambion single siRNA shows -0.446
